According to PubChem BioAssay AID1259415 (National Center for Advancing Translational Sciences (NCATS), 2018):
The campaign covered roughly 410,000 compounds. About 18,000 (4.4%) were called active. The shares of active, inactive and inconclusive entries below differ from those in the screen. No stated cut-off is given here; in the data, active means activity change below about -60%; inconclusive means no clear call, values can overlap the other calls; inactive means above about -39%.

Experiment: qHTS Assay for inhibitors of the human cytomegalovirus (HCMV)
Conditions: HFF cells, HCMV-luciferase reporter, 72 h; at 57.5 µM; stronger effect = lower value
How it was run: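 Steps: HFFs plated, 16 h 37C; compounds added; HCMV-luciferase added to MOI 1 PFU/cell; 72 h 37C; OneGlo reagent, 5 min room temperature; luminescence read, normalized to controls.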
On the % scale 0 is the no-effect control and ±100 the full control effect.

Compound | activity change, negative = inhibition
Oc1cccc(C(=S)N2CCCCC2)c1 | inconclusive: -46.2%
CC1CCC2C(=O)N(c3ccc(NC4CCN(Cc5ccccc5)CC4)c([N+](=O)[O-])c3)C(=O)C2C1 (stereo not drawn) | inconclusive: -40.7%
O=c1cc(O)c2sc(Nc3ccc(F)cc3)nc2[nH]1 | active: -92.4%
COc1ccc(-n2c(CNC(=O)COc3ccccc3)n[nH]c2=S)cc1 | inconclusive: -40.9%
CCOC(=O)c1ccc2c(c1)sc(=NC(=O)c1ccco1)n2CCOC | active: -68.1%
CC1CCN(C2=NC(=O)/C(=C/c3ccccc3F)S2)CC1 | inconclusive: -57.9%
CSc1nc(-c2ccc(Cl)cc2)nn1S(=O)(=O)c1ccc(Cl)cc1 | inconclusive: -41.6%
COc1ccc(NC(=S)NNC(=O)Cn2nc(C(F)F)cc2C(F)F)cc1 | inconclusive: -55.7%
CCOc1ccc(-c2cc(N)n(S(=O)(=O)c3ccc(OC)c(OC)c3)n2)cc1 | active: -60.2%
CCN(CC)c1ccc(NC(=O)c2cncc(Br)c2)cc1 | inconclusive: -46%
O=C(COC(=O)c1cc(S(=O)(=O)N2CCOCC2)ccc1F)Nc1ccccc1C(F)(F)F | inactive: -21.6%
COc1ccnc(Oc2ccccc2)c1C(=O)N/C=N/OCc1ccccc1F | inactive: 1.95%
CCOC(=O)c1c(NC(=S)Nc2ccccc2)sc2c1CC(C)(C)SC2 | inconclusive: -47.8%
C=CCNC(=O)C1CC(=O)N(c2ccc(OCC(=O)Nc3ccc(C)cc3)cc2)C1 (stereo not drawn) | inactive: -0.84%
O=C(COc1ccccc1[N+](=O)[O-])NCC1(N2CCOCC2)CCCCC1 | inconclusive: -42.8%
Cc1ccc(Sc2nnc(Cc3ccccc3)c3ccccc23)cc1 | active: -88.1%
FC(F)(F)c1ccc(C2[C@H]3CN(Cc4cccnc4)[C@H](c4ccccc4)C34CC2(c2ccccc2)C4)cc1 (stereo partly drawn) | inconclusive: -49.9%
COc1ccc(OCC(=O)NC(=S)Nc2ccc3c4c(cccc24)CC3)cc1 | inconclusive: -52.3%
CCOC(=O)c1c(-c2ccc(C)cc2C)csc1NC(=O)CSc1nnnn1C | active: -95.4%
CC(C)[C@H](NC(=O)N1CCn2c1nc1ccccc12)C(=O)N[C@@H](C(=O)O)c1ccccc1 | inactive: 13.8%
COC(=O)[C@]1(CC(C)C)N[C@H](c2ccc(-c3ccc(OC)cc3)cc2)[C@@H]2C(=O)N(C)C(=O)[C@@H]21 | inactive: 11.8%
O=c1c2c(nc3c(-c4ccc(Cl)cc4)c[nH]n13)CCCC2 | active: -77.7%
Cc1ccc2cc(C3CC(c4cccs4)=NN3S(C)(=O)=O)c(Cl)nc2c1 (stereo not drawn) | inconclusive: 0%

Two consecutive compounds from above:
Compound | activity change, negative = inhibition
O=C(COC(=O)c1cc(S(=O)(=O)N2CCOCC2)ccc1F)Nc1ccccc1C(F)(F)F | inactive: -21.6%
COc1ccnc(Oc2ccccc2)c1C(=O)N/C=N/OCc1ccccc1F | inactive: 1.95%
